Test results as given in article PMC5557808 (Nature Communications, 2017).

Test: general procedure: Fmoc solid-phase peptide synthesis; different resins: Fmoc-Gln(Trt)-Wang, Fmoc-Rink-Amid-PEG-AM, Fmoc-Rink-Amid-AM, Fmoc-Rink-Amid-PS-AM, 2-chlorotrityl chl
Conditions: whole synthesis

Substance | final HPLC purity [%]
G-PQGIAGQ-A( N3)-Q | 78.2
Cf-(GPQGIA GQ)3-A( N3) | 99.1
Cf-GPLGI AGQ-A( N3)-Q | 78.2
Cf-GPQGYAGQ-A( N3)-Q | 56.4
De-GPQGIAGQ-A( N3)-Q | 94.8
A( N3)-GPQGIA GQ-K-De | 89.2
G-PQGIAGQ-A-Q | 91.6
Cf-(GPQGIA GQ)2-A( N3) | 96.5
